Data on 61 compounds can be found in PubChem BioAssay AID445 (National Center for Advancing Translational Sciences (NCATS), 2006).

The other results are listed elsewhere or left out. These are further read-outs of the screen, such as a control signal, another cell line or another target. No call is given for them. Compounds called inactive in the main read-out are mostly missing here. Words in brackets tell the shape of the fitted curve; partial curves, single points and poor fits give uncertain potencies.

The nature of the assay: IkB Signaling. The following applies: ABC-DLBCL IkBa-CBG/CBR dual luciferase ratio (green luciferase fused to IkBa over red control in OCI-Ly3 lymphoma cells), 4 h. In short, it runs like this: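 Curves were fitted separately to fusion (green), unfused (red) and ratio luminescence, then classed by r2, magnitude and activity. Cells: OCI-Ly3, 4 h compound plus doxycycline at 37C; 10 uM MG-132 defined full response.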
The mark [1] stands for this setting: measured here: control luc red channel unless noted.
Setting [2] is: measured here: IkB-luc green channel.
[3] abbreviates: measured here: control luc red channel.

As to `COC(=O)c1ccccc1NC(=O)c1ccc(COc2cc(C)cc(C)c2)o1`, the AC50 under setting [1] was 2.51 µM [rising, partial curve].

`COc1ccc(CCCc2nnc(SCC(=O)Nc3cc(C)ccc3C)o2)cc1`: under setting [1], the AC50 was 12.6 µM [falling, partial curve].

For `Cc1nc2ccc(S(=O)(=O)N(CC(=O)Nc3cccc(Cl)c3)Cc3ccccc3)cc2s1`, under setting [1], the AC50 was 20 µM [falling, partial curve].

In the case of `Cc1nn(CC(=O)NCc2ccc(N(C)C)cc2)c(=O)c2c(C)n(-c3ccc(Cl)cc3)nc12`, the AC50 under setting [1] was 0.631 µM [falling, partial curve].

Take `CCCCOc1ccc(CNC(=O)Cc2ccc(NC(=O)N3CCCCc4ccccc43)cc2)cc1`: the AC50 under setting [1] is 25.1 µM [falling, partial curve].

`CCn1c(=O)n(-c2ccc(F)cc2)c(=O)c2sc3ccccc3c21`: under setting [1], the AC50 was 1.58 µM [rising, partial curve].

On to `CCOC(=O)c1c(Nc2ccc(F)cc2)nnc(-c2ccccc2)c1-c1ccccc1`, for which the AC50 under setting [1] is 10 µM [falling, partial curve].

As for `Nc1c(NCCN2CCOCC2)c2ccccc2oc1=O`, the AC50 under setting [1] is 5.01 µM [falling, full curve].

On to `O=C(OCC(=O)N1CCN(C(=O)c2ccco2)CC1)c1cc(-c2ccccc2)nc2ccccc12`, for which the AC50 under setting [1] was 12.6 µM [falling, partial curve].

For `COC(=O)c1sc2cccc(F)c2c1S(=O)(=O)Nc1ccc(N(C)C)cc1`, the AC50 under setting [1] was 20 µM [falling, single point].

As to `CCOC(=O)c1nc(S(C)(=O)=O)ncc1Cl`, the AC50 reads like this: under setting [2], 31.6 µM [falling, single point]; under setting [3], 15.8 µM [falling, partial curve].

Take `CCOc1ccc(NC(=O)CSc2nc3c(oc4ccccc43)c(=O)n2-c2cc(C)cc(C)c2)cc1`: the AC50 under setting [1] is 39.8 µM [falling, single point].

On to `Cc1ccc(C(=O)Nc2c(-c3ccccc3)nc3ccccn23)cc1`, for which the AC50 under setting [1] is 7.94 µM [falling, partial curve].

Take `Cc1nnc(N2CCC(C(=O)Nc3ccc(F)cc3)CC2)c2nn(-c3ccc(Cl)cc3)c(C)c12`: the AC50 under setting [1] was 6.31 µM [falling, partial curve].

With `O=C(CNC(=O)c1ccco1)OCc1ccc(C(=O)Oc2ccccc2)cc1`, the AC50 under setting [2] is 25.1 µM [rising, partial curve] and the AC50 under setting [3] was 31.6 µM [rising, single point].

As for `CC(C)=CCc1c(O)cc(O)c2c1O[C@H](c1ccccc1)CC2=O`, under setting [1], the AC50 is 0.158 µM [rising, partial curve].

As to `Cc1cc2nn(-c3ccccc3)nc2cc1NC(=O)COc1ccc(Cl)cc1`, under setting [1], the AC50 was 2 µM [rising, full curve].

As for `Cc1cc(NC(=O)c2cc(-c3cccc(Cl)c3)on2)nn1Cc1ccc(Cl)cc1`, the AC50 under setting [1] was 12.6 µM [falling, partial curve].

Regarding `CCCN(CCC)C(=O)Cn1c(=O)n(-c2ccc(C)c(C)c2)c(=O)c2c3c(sc21)CCCCC3`, the AC50 under setting [1] was 7.94 µM [falling, partial curve].

As to `Cc1ncc(CO)c2c1Oc1nc(-c3ccc(F)cc3)nc(SCC(=O)N3CCCCC3)c1C2`, the concentration at half-maximal activity (AC50) under setting [1] is 25.1 µM [falling, single point].

For the compound `Cc1ccc(CN2C(=O)N(c3ccc(F)cc3)C(=O)C2CC(=O)Nc2ccc(Cl)cc2)cc1` (stereo not drawn), under setting [1], the AC50 is 15.8 µM [falling, partial curve].

As for `COC(=O)CN1C(=O)CSc2ccc(S(=O)(=O)Nc3cccc(Br)c3)cc21`, under setting [1], the AC50 is 20 µM [falling, partial curve].

Take `Cc1ccc(C)c(Cn2c3ccccc3c3cnn(CC(=O)NC4CCC(C)CC4)c(=O)c32)c1` (stereo not drawn): the AC50 under setting [1] was 6.31 µM [falling, partial curve].

As for `COc1ccc(-n2nc(C(=O)N3CCCC(C)C3)c3c4ccccc4n(C)c3c2=O)cc1Cl` (stereo not drawn), the AC50 under setting [1] was 31.6 µM [falling, single point].

As for `COc1cc(OC)c(NC(=O)CCCn2nc(C)c3c(C)n(-c4ccccc4)nc3c2=O)cc1Cl`, the AC50 under setting [1] was 10 µM [falling, partial curve].

`O=C(NC1CC(=O)N(c2ccccc2)C1)c1ccc(S(=O)(=O)N2CCCCC2)cc1` (stereo not drawn): the AC50 under setting [1] is 1 µM [falling, partial curve, poor fit].

As to `Cc1nn2c(C)c(C(=O)NCc3ccco3)cnc2c1-c1ccccc1`, the AC50 under setting [1] was 25.1 µM [falling, single point].

As to `COCCCN1C(=O)c2[nH]nc(-c3ccccc3O)c2C1c1ccc(Cl)cc1` (stereo not drawn), under setting [1], the AC50 was 12.6 µM [falling, partial curve].

Consider `Cn1c(=O)oc2cc(S(=O)(=O)N3CCCC(C(=O)NCc4ccc(F)cc4)C3)ccc21` (stereo not drawn), for which the AC50 under setting [1] was 39.8 µM [falling, single point].

`CC(=O)c1sc(Nc2ccccn2)nc1C`: the AC50 under setting [1] was 31.6 µM [falling, single point] [measured here: IkB-luc green channel].

As to `Cc1ccc(N2CCN(C(=O)c3cnc(N4CCCCC4)c4ccccc34)CC2)c(C)c1`, the AC50 under setting [1] was 20 µM [falling, partial curve].

On to `COc1cccc2c1C(=O)c1c(O)c3c(c(O)c1C2=O)C[C@](O)(C(=O)CO)C[C@H]3O[C@@H]1C[C@H](N)[C@H](O)[C@H](C)O1`, for which the AC50 under setting [1] is 3.98 µM [falling, full curve].

As for `COc1cccc(Cn2nnc3c(=O)[nH]c(C4CCN(C(=O)c5ccccc5Cl)CC4)nc32)c1`, the AC50 under setting [1] was 39.8 µM [falling, partial curve].

For the compound `O=C(NCc1ccccc1Br)c1cnc2sc(N3CCCCCC3)nn2c1=O`, under setting [1], the AC50 is 39.8 µM [falling, single point].

Turning to `Cc1ccc(C)c(CN2C(=O)c3ccccc3S(=O)(=O)c3ccc(C(=O)NCCCN4CCCC(C)C4)cc32)c1` (stereo not drawn), under setting [1], the AC50 was 10 µM [falling, partial curve].

On to `Cc1ccc(NC(=O)c2noc3c2CCCCC3)cc1C`, for which the AC50 under setting [1] is 0.398 µM [falling, full curve].

As to `Cc1sc2nc(C(C)C)nc(SCC(=O)NCc3ccco3)c2c1C`, under setting [1], the AC50 is 7.94 µM [falling, partial curve].

Consider `O=c1[nH]c(=O)n(C2CCCCC2)c(O)c1C1=Nc2ccccc2SC(c2ccccc2)C1` (stereo not drawn), for which the half-maximal activity concentration (AC50) under setting [1] is 15.8 µM [falling, partial curve].

As for `COc1ccccc1NC(=O)C1=C(C)Nc2nc(SCc3ccccc3Cl)nn2C1c1ccccn1` (stereo not drawn), the AC50 under setting [1] was 3.16 µM [falling, full curve].

For the compound `CN(C)c1ccc(/C=C/c2noc(-c3ccccc3O)n2)cc1`, the AC50 under setting [1] was 0.631 µM [falling, full curve].

For the compound `Cc1cccc(OCC(=O)N(Cc2ccc(C(C)(C)C)cc2)Cc2ccco2)c1`, the AC50 under setting [1] is 25.1 µM [falling, partial curve].

In the case of `Cc1ccc(C(c2cccc(Br)c2)c2c(C)[nH]c3ccccc23)s1` (stereo not drawn), under setting [1], the AC50 was 25.1 µM [falling, partial curve].

As for `COCCCNc1nc(NCc2cccc(Cl)c2)c2cnn(C)c2n1`, under setting [1], the AC50 was 20 µM [falling, partial curve].

`CCc1ccc(-n2nc(C)c3c(C)cc(=O)n(CC(=O)Nc4ccc(C(C)=O)cc4)c32)cc1`: under setting [1], the AC50 was 0.0251 µM [rising, full curve, poor fit].

For the compound `COc1cc(OC)c(NC(=O)N2CC3CCCN3c3ccccc32)cc1Cl` (stereo not drawn), the half-maximal activity concentration (AC50) under setting [1] was 15.8 µM [falling, partial curve].

For the compound `CCC1CN(C(=O)N2CCC(C(=O)Nc3ccccc3F)CC2)c2ccccc2O1` (stereo not drawn), under setting [1], the AC50 was 20 µM [falling, partial curve].

Regarding `CC(C)(CC(=O)N1CCN(c2ccc(Cl)cc2)CC1)CC1=NS(=O)(=O)c2ccccc2N1`, the AC50 under setting [1] was 7.94 µM [falling, partial curve].

On to `CCC(C)Sc1nc2c(c(=O)[nH]c(=O)n2C)n1C` (stereo not drawn), for which the AC50 under setting [1] was 12.6 µM [rising, partial curve].

As for `Cc1ccc(CCNC(=O)c2ccc3c(Cl)c4c(nc3c2)CCCC4)cc1`, under setting [1], the AC50 was 6.31 µM [falling, partial curve].

For the compound `Cc1ccc(C)c(N2CCN(c3c(CN4CCCC4)c(=O)oc4ccccc34)CC2)c1`, the AC50 under setting [1] was 39.8 µM [falling, single point].

Turning to `O=C(Nc1cccc(Cl)c1Cl)c1cc(S(=O)(=O)NCc2ccc3c(c2)OCO3)ccc1F`, the AC50 under setting [1] was 3.16 µM [falling, partial curve, poor fit].

As for `Cc1cccc2cc(C#N)c(NCCNS(=O)(=O)c3ccc4c(c3)OCCO4)nc12`, the AC50 under setting [1] was 25.1 µM [falling, partial curve].

As for `CCCCSc1nnc2c(n1)OC(c1ccc(Br)s1)N(C(C)=O)c1ccccc1-2` (stereo not drawn), the AC50 under setting [1] was 1.58 µM [falling, full curve].

With `CSc1ccc(CCNC(=O)Cn2ccc3cc(S(=O)(=O)N4CCCCCC4)ccc32)cc1`, under setting [1], the AC50 was 2 µM [falling, partial curve, poor fit].

Turning to `Cc1c(C(=O)Nc2ccc(C(=O)O)cc2)nnn1-c1ccccc1`, the AC50 under setting [1] is 10 µM [falling, partial curve].

For the compound `Cc1ccc(CN2CCCN(CC(=O)Nc3ccc(C)cc3C)S2(=O)=O)cc1`, the AC50 under setting [1] is 25.1 µM [falling, single point].

With `O=C(Nc1ccc2c(c1)nc1n2CCOC1)c1ccco1`, the AC50 under setting [1] was 5.01 µM [falling, partial curve].

In the case of `Cc1ccc(CNc2ccc3c(c2)OCO3)cc1`, the AC50 under setting [1] is 12.6 µM [falling, partial curve].

With `COc1ccc(CNC(=O)C2CCCN(S(=O)(=O)c3cccc4nsnc34)C2)cc1` (stereo not drawn), the AC50 under setting [1] is 12.6 µM [falling, partial curve].

In the case of `Cn1nnnc1SCCCNCc1cc(Cl)ccc1OCc1ccc(F)cc1`, the AC50 under setting [1] is 3.98 µM [rising, single point].

For the compound `Nc1c(C(=O)Nc2ccc(OC(F)(F)F)cc2)sc2nc(-c3ccncc3)ccc12`, the AC50 under setting [1] was 12.6 µM [falling, partial curve].
